According to publication PMC9823104:
For some of these results: Negatives hold for the conditions tested. For some of these results: Construct, isoform or probe ends are uncertain for at least one entry. For some of these results: At least one verdict was read from the data and is not stated in words by the source. For some of these results: At least one result comes from cells or an extract, where the contact may be indirect.

Chains of the proteins cited; added tags and fusions are not shown. Lines headed by an entry give the natural chain unless they say otherwise; changes in a name come on top.
UniProt P26358: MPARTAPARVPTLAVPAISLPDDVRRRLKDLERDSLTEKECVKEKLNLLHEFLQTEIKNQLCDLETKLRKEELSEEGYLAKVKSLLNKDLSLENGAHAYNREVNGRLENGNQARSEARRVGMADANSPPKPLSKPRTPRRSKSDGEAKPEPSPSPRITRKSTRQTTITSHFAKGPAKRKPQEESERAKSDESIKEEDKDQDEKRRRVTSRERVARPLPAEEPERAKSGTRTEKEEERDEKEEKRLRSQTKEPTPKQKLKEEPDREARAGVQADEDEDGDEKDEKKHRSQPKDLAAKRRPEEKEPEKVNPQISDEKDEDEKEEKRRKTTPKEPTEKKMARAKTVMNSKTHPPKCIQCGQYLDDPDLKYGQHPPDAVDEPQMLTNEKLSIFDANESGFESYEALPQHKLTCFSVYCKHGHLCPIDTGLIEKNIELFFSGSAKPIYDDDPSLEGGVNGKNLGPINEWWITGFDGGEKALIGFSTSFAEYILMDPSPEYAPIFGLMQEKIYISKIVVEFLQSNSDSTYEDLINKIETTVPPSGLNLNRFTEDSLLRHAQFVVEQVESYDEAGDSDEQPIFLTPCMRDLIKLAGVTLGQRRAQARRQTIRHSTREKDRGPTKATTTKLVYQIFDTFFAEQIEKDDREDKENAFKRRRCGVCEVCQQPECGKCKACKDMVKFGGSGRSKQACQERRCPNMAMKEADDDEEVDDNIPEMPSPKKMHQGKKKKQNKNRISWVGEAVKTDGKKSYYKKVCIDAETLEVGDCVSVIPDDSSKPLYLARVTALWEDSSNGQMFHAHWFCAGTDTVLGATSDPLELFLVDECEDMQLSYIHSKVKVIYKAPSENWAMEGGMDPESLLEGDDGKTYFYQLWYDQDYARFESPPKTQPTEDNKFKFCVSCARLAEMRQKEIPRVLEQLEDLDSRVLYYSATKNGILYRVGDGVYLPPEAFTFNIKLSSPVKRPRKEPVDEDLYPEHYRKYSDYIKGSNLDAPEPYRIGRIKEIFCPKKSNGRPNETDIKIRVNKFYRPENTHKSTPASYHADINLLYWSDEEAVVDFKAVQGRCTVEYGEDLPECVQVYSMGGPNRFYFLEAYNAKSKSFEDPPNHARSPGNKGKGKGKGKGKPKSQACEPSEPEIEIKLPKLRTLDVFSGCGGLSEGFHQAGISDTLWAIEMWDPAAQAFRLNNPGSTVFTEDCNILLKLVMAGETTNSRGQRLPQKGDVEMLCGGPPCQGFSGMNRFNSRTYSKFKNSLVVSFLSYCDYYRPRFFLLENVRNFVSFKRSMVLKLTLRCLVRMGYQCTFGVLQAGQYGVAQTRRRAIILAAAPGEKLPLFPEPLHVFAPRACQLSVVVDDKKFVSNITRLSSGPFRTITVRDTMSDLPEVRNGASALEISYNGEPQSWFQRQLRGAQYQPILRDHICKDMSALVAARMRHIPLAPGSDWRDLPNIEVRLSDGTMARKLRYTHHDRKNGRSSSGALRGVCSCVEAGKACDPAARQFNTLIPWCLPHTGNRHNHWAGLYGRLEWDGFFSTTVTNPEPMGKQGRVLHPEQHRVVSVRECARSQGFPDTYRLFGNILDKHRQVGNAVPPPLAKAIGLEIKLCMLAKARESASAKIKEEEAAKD

Experiments:
[1] = target: DNMT1 (purified, Active Motif) (UniProt P26358); assay: EMSA; conditions: 5 mM Mg2+, 0.8 uM protein; 2'-F pyrimidines (all C and U); EMSA: 5 mM Tris pH 7.4, 5 mM MgCl2, 1 mM DTT, 3% glycerol, 100 mM NaCl, RT; commercial protein; label: 5' 32P
[2] = target: Human serum albumin (HSA) (Homo sapiens) (UniProt P02768); assay: ELONA; conditions: up to 750 nM RNA; 2'-F pyrimidines (all C and U); label: biotin (3' in Fig. 2c)
DNMT1 endogenous (K562) = DNMT1 endogenous (K562) (UniProt P26358); assay: pull-down; conditions: 200 nM RNA; 2'-F pyrimidines (all C and U); pulldown: 10 mM Tris pH 7.5, 5 mM EDTA, 0.1% Triton X-100; protein in an extract; label: biotin (3' in Fig. 2c)
KAT5 = KAT5 (UniProt Q92993); assay: BLI; conditions: 2'-F pyrimidines (all C and U); BLI: AR2G tips, protein amine-coupled, assay buffer not fully stated (PBS pre-hydration); commercial protein
DNMT3B = DNMT3B (UniProt Q9UBC3); assay: BLI; conditions: 2'-F pyrimidines (all C and U); BLI: AR2G tips, protein amine-coupled, assay buffer not fully stated (PBS pre-hydration); commercial protein
DNMT3A = DNMT3A (UniProt Q9Y6K1); assay: BLI; conditions: 2'-F pyrimidines (all C and U); BLI: AR2G tips, protein amine-coupled, assay buffer not fully stated (PBS pre-hydration); commercial protein

| Sequence | binding result (DNMT1 endogenous (K562)) | binding result (KAT5) | binding result (DNMT3B) | binding result (DNMT3A) | also measured |
| --- | --- | --- | --- | --- | --- |
| CUGAGGCCUAACGAAGGCUUCU [Ce-49 sh 32P] |  |  |  |  | binding result [1]: binds |
| CUGAGGCCUAACGAAGGCUUCU [Ce-49 sh biotin] | binds |  |  |  | binding result [2]: no binding |
| CUGAGGCCUAACGAAGGCUUCU [Ce-49 sh] |  | no binding | no binding | no binding |  |
| CUGAGGCCUUGGCGAGGCUUCU [DNMT1 bait (2'F-Py R5)] |  | no binding | no binding | no binding |  |
| CUGAGGCCUUGGCGAGGCUUCU [DNMT1 bait biotin] | binds |  |  |  |  |
| UUACUGGGCUGAGGUAAUGGCGAGG [Ce-10-2 sh 32P] |  |  |  |  | binding result [1]: binds |
| UUACUGGGCUGAGGUAAUGGCGAGG [Ce-10-2 sh biotin] | binds |  |  |  | binding result [2]: no binding |
| UUACUGGGCUGAGGUAAUGGCGAGG [Ce-10-2 sh] |  | no binding | no binding | no binding |  |
